Results are given in words; binding and its absence hold for the method and conditions named. In cells and extracts the contact can be indirect. Binding calls can cover weak binding; strength is not graded here.
Biological target: T1, Caveolin 1 (rat) (UniProt P41350)
T1 sequence: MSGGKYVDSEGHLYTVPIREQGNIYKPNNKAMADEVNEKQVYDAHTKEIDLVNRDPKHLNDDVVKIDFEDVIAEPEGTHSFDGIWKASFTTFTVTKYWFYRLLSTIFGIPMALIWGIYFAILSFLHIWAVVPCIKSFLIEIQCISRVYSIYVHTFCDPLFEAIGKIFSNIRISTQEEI
Assay: co-IP; total protein lysates of HEK Cav1 cells 24 h after transfection with YFP-tagged channels; immunoprecipitation against caveolin, blot against GFP; 1% Triton X-100 NHG buffer, 4 °C

binding | Substance
binds | Kv1.3ΔCt (rat) (domain or fragment)
no binding | Kv1.3ΔNt (rat) (domain or fragment)
